Tested on: Vibrio fischeri
Details: 80 μg·mL^−1
Experimental: For this, the tests were carried out on the degradation media before (T0) and after metabolization by enzymes immobilized on PGMA and DOPA functionalized Kaldnes after 30 min, 1 h and 24 h of contact.
The tests are performed with the maximum volume of test solution that can be provided and defined by the standards cited earlier. The results are expressed as a percentage of growth inhibition for algae and Daphnia test, as percentage of light emission inhibition for the Microtox test and as percentage of cell viability inhibition for cytotoxicity tests.

For `Cc1cc(NS(=O)(=O)c2ccc(N)cc2)no1` [sulfamethoxazole], the “Percentage of inhibition, Microtox” value was 11 ± 2%.

Reference: US10538443B2, “Method of degradation and inactivation of antibiotics in water by immobilized enzymes onto functionalized supports” (Luxembourg Institute of Science and Technology (LIST), priority 2014, dated 2020)
